Test results taken from US20140263071A1, “METHOD FOR COLLECTING METALS” (CHEMEC OY AB, priority 2011, published 2014).

Tests used:
[1] = Recycling and regeneration of solid bisphosphonate material (Example 27); conditions: 20 cycles; start 700 mg
Experimental: Compound 1a (700 mg) was weighed on sintered disc (porosity G-4) and aqueous CuCl2x2 H2O (20 ml) solution containing ca. 47 700 ppm of copper was passed slowly through the powder under vacuum. […] After the sintered disc was dry, aqueous HCl (25 ml, 2M) was passed slowly through the sintered disc. During this regeneration process solid bisphoshonate material on sintered disc turned from blue to white and filtered HCl solution was pale blue. The same procedure using the original 1a powder on sintered disc and a fresh CuCl2x2 H2O (20 ml) solution was repeated 20 times. The copper concentrations measured by AAS of the filtered HCl solution was 2294 ppm, 859 ppm and 713 ppm after first, 10th and 20th regeneration cycle, respectively. The amount of 1a after the last regeneration step was 630 mg (90% of the original amount).

[2] = Optimal expulsion pH range with minimum expulsion percent, single elements (Example 7)
Experimental: A water solution (110 ml) containing known amount of single cationic element or elements, typically 0.5-200 ppm, was prepared from Merch Titrisol® standard solution. After adjusting pH by using acid (e.g. HCl or HNO3) or base (e.g. NaOH) to desired initial value, sample A (10 ml) was taken followed by adding 100 mg of selected solid complexation agent. The mixture was stirred at room temperature for 24 h and sample B (10 ml) was taken. Samples A and B were filtrated separately trough 0.2 μm syringe filter and the concentration of the studied element or elements in both solution was determined by using atomic absorption spectrophotometer. The expulsion percent was determined from the concentration differences between the sample solutions A and B.
Using the above mentioned general procedure optimal expulsion pH ranges for each metal with complexation agent 1a was determined. For each element the expulsion percent was determined in 5-14 different pH value. The obtained results are shown in table below with minimum expulsion percent inside the optimal pH range.

NCCCCCCCCCCC(O)(P(=O)(O)O)P(=O)(O)O [Compound 1a, 11-Amino-1-hydroxyundecane-1,1-diyldiphosphonic acid]
amount of 1a after the last regeneration step [1]: 630 mg
amount of 1a after the last regeneration step, of the original amount [1]: 90%
pH range ([2]; Ag^+): 1.5-12
pH range ([2]; Al^3+): 1-2
pH range ([2]; Au^3+): 0-2
pH range ([2]; Ba^2+): 3-12
pH range ([2]; Bi^3+): 0.5-4
pH range ([2]; Ca^2+): 4-12
pH range ([2]; Cd^2+): 3-11
pH range ([2]; Co^2+): 4-11
pH range ([2]; Cr^3+): 2.5-12
pH range ([2]; Cr^6+, As^3/5+, Ta^5+): 0-12
pH range ([2]; Cu^2+): 3-11
pH range ([2]; Cu^+): 3-11
pH range ([2]; Eu^3+): 2-8
pH range ([2]; Fe^2+): 3-10
pH range ([2]; Fe^3+): 1-11
pH range ([2]; Ga^3+, lower range): 0.5-1
pH range ([2]; Ga^3+, upper range): 6-11
pH range ([2]; Hg^2+): 2-11
pH range ([2]; Hg^+): 2-11
pH range ([2]; Ir^3+): 0.0-0.5
pH range ([2]; La^3+): 0-3.8
pH range ([2]; Li^+, Na^+, K^+): 0-12
pH range ([2]; Mg^2+): 4-12
pH range ([2]; Mn^2+): 4-10
pH range ([2]; Mo^6+): 4-10
pH range ([2]; Nb^5+): 0-12
pH range ([2]; Nd^3+): 2-8
pH range ([2]; Ni^2+): 4-11
pH range ([2]; Os^4+): 5-7
pH range ([2]; Pb^2+): 2-9
pH range ([2]; Pd^2+): 7-12
pH range ([2]; Pt^2+): 0-1
pH range ([2]; Rh^3+): 2-10
pH range ([2]; Ru^3+): 2-11
pH range ([2]; Sb^3+): 0.5-11
pH range ([2]; Sc^3+): 0-12
pH range ([2]; Si^4+, Se^4/6+): 0-12
pH range ([2]; Sn^2+): 8-10
pH range ([2]; Sn^4+): 7-11
pH range ([2]; Sr^2+): 4-12
pH range ([2]; Ti^4+): 10-12
pH range ([2]; V^4+): 0-0.5
pH range ([2]; W^6+): 0.5-3
pH range ([2]; Zn^2+): 4-11
